{
  "sequences": {"note": "Amino acid sequences for entries named in this document (tags omitted).", "UniProt Q00416": "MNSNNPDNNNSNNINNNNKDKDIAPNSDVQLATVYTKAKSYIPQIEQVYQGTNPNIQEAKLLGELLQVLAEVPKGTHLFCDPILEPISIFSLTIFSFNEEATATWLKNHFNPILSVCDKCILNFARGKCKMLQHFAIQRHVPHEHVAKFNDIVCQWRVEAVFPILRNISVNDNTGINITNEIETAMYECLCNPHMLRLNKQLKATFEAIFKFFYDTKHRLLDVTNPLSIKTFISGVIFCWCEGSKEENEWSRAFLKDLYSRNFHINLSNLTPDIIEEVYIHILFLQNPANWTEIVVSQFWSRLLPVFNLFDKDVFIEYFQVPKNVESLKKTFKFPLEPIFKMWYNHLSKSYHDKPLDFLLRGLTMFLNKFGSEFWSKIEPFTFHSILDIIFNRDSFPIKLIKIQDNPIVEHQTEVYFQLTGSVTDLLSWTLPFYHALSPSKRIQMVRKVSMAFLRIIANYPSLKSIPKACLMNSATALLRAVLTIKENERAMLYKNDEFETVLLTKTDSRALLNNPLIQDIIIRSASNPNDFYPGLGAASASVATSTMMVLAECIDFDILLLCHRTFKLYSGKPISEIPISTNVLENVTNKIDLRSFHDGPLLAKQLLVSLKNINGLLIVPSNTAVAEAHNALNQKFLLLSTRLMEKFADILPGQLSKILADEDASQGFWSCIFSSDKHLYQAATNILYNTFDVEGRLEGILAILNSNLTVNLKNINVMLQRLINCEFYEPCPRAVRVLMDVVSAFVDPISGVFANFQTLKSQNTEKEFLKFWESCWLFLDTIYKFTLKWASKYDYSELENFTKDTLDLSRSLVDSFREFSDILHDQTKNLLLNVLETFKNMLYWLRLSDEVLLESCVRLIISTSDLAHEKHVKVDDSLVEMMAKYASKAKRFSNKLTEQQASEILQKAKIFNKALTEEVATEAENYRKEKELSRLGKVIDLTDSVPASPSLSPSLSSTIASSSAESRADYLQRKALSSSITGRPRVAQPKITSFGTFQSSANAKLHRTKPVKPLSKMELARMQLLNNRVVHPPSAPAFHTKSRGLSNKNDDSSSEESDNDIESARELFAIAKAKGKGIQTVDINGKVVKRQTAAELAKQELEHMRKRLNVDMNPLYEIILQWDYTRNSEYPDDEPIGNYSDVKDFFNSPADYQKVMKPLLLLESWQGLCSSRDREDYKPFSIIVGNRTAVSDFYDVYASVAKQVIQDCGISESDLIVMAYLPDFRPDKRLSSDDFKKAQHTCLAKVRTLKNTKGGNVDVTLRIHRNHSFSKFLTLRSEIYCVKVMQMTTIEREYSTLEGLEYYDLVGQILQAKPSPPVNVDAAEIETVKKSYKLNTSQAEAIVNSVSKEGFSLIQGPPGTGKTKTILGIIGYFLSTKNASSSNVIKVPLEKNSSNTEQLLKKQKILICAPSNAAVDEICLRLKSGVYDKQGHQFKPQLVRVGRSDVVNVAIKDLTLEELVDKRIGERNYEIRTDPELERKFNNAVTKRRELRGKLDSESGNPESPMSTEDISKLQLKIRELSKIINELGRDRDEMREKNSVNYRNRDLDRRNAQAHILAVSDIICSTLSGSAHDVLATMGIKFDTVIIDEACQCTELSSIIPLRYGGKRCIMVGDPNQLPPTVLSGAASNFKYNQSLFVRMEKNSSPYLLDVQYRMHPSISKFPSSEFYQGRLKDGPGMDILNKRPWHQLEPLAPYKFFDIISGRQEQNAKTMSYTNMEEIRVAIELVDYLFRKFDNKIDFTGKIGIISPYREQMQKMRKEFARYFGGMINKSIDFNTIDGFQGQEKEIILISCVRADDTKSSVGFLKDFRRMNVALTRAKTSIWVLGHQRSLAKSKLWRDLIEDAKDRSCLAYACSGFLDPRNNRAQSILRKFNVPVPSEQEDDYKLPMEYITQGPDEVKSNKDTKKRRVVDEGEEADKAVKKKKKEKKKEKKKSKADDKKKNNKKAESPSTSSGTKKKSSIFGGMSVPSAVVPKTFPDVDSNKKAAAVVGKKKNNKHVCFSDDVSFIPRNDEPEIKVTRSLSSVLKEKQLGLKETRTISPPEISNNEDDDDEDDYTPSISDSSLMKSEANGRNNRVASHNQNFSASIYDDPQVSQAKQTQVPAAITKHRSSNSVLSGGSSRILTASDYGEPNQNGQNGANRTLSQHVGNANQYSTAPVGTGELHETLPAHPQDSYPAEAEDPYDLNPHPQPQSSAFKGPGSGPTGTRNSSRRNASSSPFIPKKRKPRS"},
  "source": "paper PMC9278858",
  "binders": {"B1": {"name": "Ctf4 (protein, UniProt Q01454 1-927)", "chain": "MVSVIDKLVFDFGGKTLVSLAPDNNTLCVANKNGLTKILKTNNPEEEPETLDSSKLVSSIKCYSNSHFLMTTMQGDALRYNIDSSQEELLARFALPLRDCCVIHSGKMAVFGGDDLELILLELDDETHKKHAIKIDEQVSQISYNSQMNILAVSMINGKVQIFSLTSTIPNKVHELNDYIVANSYDDTHRDKILSNMMDDIDKDNDNDLSETADPDENNVADPEFCAANRICTRVAWHPKGLHFALPCADDTVKIFSIKGYSLQKTLSTNLSSTKAHFIDLQFDPLRGTYIAAVDLNNKLTVWNWETSEIHYTREFKRKITNIAWKIQADSKTLDLVLGTWSGSIAIVQNLAESVVSNIPDQSVAESSTKHGLFVDSESDLENLEGNDDINKSDKLFSDITQEANAEDVFTQTHDGPSGLSEKRKYNFEDEEDFIDDDDGAGYISGKKPHNEHSYSRVHKTHSFPISLANTGKFRYMPFSPAGTPFGFTDRRYLTMNEVGYVSTVKNSEQYSITVSFFDVGRFREYHFEDLFGYDLCFLNEKGTLFGQSKTGQIQYRPHDSIHSNWTKIIPLQAGERITSVAATPVRVIVGTSLGYFRSFNQFGVPFAVEKTSPIVALTAQNYRVFSVHYSQFHGLSYSLSELGTSSKRYYKRECPLPMSLPNINSDMKKDANLDYYNFNPMGIKSLFFSSYGDPCIFGSDNTLLLLSKWRSPEESKWLPILDSNMEIWKMSGGKETTDIHVWPLALAYDTLNCILVKGKHIWPEFPLPLPSEMEIRMPVFVKSKLLEENKAILNKKNEIGADTEAEEGEEDKEIQIPVSMAAEEEYLRSKVLSELLTDTLENDGEMYGNENEVLAALNGAYDKALLRLFASACSDQNVEKALSLAHELKQDRALTAAVKISERAELPSLVKKINNIREARYEQQLK"}, "B2": {"name": "Mrc1 (protein, UniProt P25588 1-1096)", "chain": "MDDALHALSSLTAKKRTTTYKKVAVPILDENDNTNGNGPNDIDNPPELTGNGFLFANATLNRVKNRLEGKKAPEQNHNNGKDRSENSLPTQLISNLYDGGEELEKSEVKDNSYSEKNVSSSFTQTQRIPVSIQQDKVFNVPIHSVNDGKPTQLIKEDGLVNETSQALKTPLTTGRPGATQRIDSSGATSQTQPIKSIEPQSQIITTSSNHSNALSPKIPIIPTELIGTSPLFQSIQNRGPDTQMDVPPQTAHDEDKTQAIGIPQATHQEQKTQIDTVAQTLQDEVPHTLKIREIQSELASEDSKREKARNVEYKKPQKPIPTKKFFSKESFLADFDDSSSNEDDDIKLENAHPKPVQNDDELHENKSVELNLTDETRINEKRVPLLSSYANNLKREIDSSKCITLDLDSDSDEYGDDDMDSIKLSKDESVLPISQLSKATILNLKARLSKQNQKLSQRPNKSKDPKVDHNVLLNTLRKASRKQILDHQKEVIETKGLKLEDMAKEKEIVENLLEQEILRNKRIRQKEKRREKLEENDFQLNAHDSGSDSGSESSGFALSGNEIADYESSGSENDNRRESDSEKEDDEIILKQKKSHHVKHIINESDSDTEVEAKPKEKADESLPKRIAINLGHYGDNIGEDTDKFQETNVLDTQNIEEVMAERNTIENEVKDDVYVNEEADEAIRRQLIDKEKLQLKQKEKEHEAKIKELKKRGVTNFFEMEAEESEDEWHGIGGADGEGSDDYDSDLEKMIDDYSKNNFNPHEIREMLAAENKEMDIKMINKILYDIKNGGFRNKRAKNSLELELSDDDEDDVLQQYRLKRRELMRKRRLEIGDDAKLVKNPKSSAFFESMVEDIIEYKNPFGAEEEYNLDITSTATDLDTQDNSINVGDNTGNNEQKPVDQKNKKVIISEDFVQKSLSFLKSNNYEDFETDKELSRIQHGNDEAIEDLYTLKQNSSIKSFTNSQTDSTTSKTVNTIIDLEKRPEDEDEVENGDTSLVGVFKHPSIIKSFASRTDINDKFKEGNKTVKILKSYKTVGSSKASITYMGKTRKLIAPKRKTEGSHRYHHDHHNKKMKMKTKTKSNKLFESGQDSFDN"}},
  "key": {"[1]": {"target": "T1, Rpc160-HTP (largest subunit of RNAPIII, C-terminally His6–TEV–Protein A tagged) (S. cerevisiae) (UniProt P04051)", "T1 sequence": "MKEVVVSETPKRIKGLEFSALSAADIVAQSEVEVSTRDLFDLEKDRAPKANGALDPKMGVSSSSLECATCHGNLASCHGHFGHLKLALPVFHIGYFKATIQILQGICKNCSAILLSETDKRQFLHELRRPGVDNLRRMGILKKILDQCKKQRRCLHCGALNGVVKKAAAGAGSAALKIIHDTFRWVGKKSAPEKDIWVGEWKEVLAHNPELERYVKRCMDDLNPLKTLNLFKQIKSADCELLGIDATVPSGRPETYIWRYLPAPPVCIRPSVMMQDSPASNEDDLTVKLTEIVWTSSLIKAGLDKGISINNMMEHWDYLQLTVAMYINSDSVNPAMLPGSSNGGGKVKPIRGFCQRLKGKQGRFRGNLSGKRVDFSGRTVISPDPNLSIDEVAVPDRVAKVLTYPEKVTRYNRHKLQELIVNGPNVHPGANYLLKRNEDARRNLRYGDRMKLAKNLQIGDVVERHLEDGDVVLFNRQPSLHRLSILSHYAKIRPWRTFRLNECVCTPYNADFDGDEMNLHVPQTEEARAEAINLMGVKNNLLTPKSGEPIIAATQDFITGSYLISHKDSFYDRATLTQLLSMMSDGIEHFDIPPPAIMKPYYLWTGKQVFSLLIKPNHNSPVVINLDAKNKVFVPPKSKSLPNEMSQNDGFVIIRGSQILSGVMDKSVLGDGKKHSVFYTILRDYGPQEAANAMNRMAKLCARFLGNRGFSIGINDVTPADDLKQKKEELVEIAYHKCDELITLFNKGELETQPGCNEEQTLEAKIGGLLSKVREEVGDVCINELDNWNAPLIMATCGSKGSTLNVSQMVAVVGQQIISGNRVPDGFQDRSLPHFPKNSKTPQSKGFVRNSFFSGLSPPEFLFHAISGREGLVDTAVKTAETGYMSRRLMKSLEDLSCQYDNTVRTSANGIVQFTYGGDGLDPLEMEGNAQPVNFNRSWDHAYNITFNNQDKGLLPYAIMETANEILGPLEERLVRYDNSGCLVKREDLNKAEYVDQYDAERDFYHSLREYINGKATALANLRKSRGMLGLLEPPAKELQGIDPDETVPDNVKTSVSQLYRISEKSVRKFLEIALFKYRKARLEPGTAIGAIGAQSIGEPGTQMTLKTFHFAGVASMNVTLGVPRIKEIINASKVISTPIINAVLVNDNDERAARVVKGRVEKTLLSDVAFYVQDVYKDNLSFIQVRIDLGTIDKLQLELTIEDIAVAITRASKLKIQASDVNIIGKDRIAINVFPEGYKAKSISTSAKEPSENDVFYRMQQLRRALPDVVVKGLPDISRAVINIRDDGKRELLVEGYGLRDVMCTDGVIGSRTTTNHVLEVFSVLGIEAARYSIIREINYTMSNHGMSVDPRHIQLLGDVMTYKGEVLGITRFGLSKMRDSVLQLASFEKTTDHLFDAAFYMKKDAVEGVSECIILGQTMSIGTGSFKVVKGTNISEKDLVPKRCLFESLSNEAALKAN", "assay": "affinity purification with mass spectrometry; Rpc160-HTP as bait in WT (SEN1) or sen1-3 cells; IgG-coupled Dynabeads, 2 hours at 4°C; no RNase A treatment; label-free quantitative MS against an untagged control"}, "[2]": {"target": "TAP-Sen1 (full-length Sen1 fused to a tandem affinity purification tag, expressed from pGAL1) (S. cerevisiae) (UniProt Q00416)", "assay": "affinity purification with mass spectrometry; TAP-tagged Sen1 versions (full length, ΔNTD, NTD) overexpressed from pGAL1 as baits; yeast lysates in 10 mM sodium phosphate pH 7.5, 200 mM sodium acetate, 0.25% NP-40, treated with RNase A; IgG Sepharose; elution by TEV cleavage; untagged control"}},
  "note": "Results are given in words; binding and its absence hold for the method and conditions named. Binding seen in cells or lysates may run through a third protein. Here binding means that the protein was enriched with, or labelled near, the bait; the list need not be complete. For some of these results: A no says only that the protein was not detected with the bait. For some of these results: Where a sequence is shown, tags or fusion partners need not be part of it.",
  "data": [
    {"binder": "B1", "values": [
      {"measurement": "binding", "setting": "[1]", "result": "no binding"},
      {"measurement": "binding", "setting": "[2]", "result": "binds"}
    ]},
    {"binder": "B2", "values": [
      {"measurement": "binding", "setting": "[1]", "result": "no binding"},
      {"measurement": "binding", "setting": "[2]", "result": "binds"}
    ]}
  ]
}
